Results taken from PubChem BioAssay AID1347076 (National Center for Advancing Translational Sciences (NCATS), 2019).
Several values for one entry are separate records, joined by “and”; a condition that tells them apart may be missing. Identical values can stand only once. The whole screen tested about 400,000 compounds, of which about 13,000 (3.2%) were called active. The inconclusive results got no clear call from the source; some entries with a clear call stand among them for comparison. Calls follow the shape of the dose curve; as a rule, active = well fitted cell-killing curve with a large enough effect; inconclusive = small, poorly fitted or top-dose-only effect, or effect the other way; inactive = flat fitted curve, though single readings scatter. A potency beside an inconclusive call is a rough fit, not a confirmed value.
% is scaled to controls: 0 for no effect and ±100 for the full control effect; potency is read from the fitted curve at half-maximal effect.

Experiment: qHTS assay for MDR1-selective chemotherapeutics: Primary screen using the drug-selected MDR subline cells KB-V1; also: nearly all actives have a fitted effect of over 60% in size
Conditions: KB-V1 MDR cells viability, CellTiter-Glo, 72 h; activity change, negative = cytotoxicity: at 46.1 µM (top of the series)
Procedure, shortened: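 Luminescent ATP read-out (CellTiter-Glo, 10 min) measures survival of drug-selected KB-V1 MDR cells after 72 h, 37 degrees C compound exposure. Medium: phenol-red-free DMEM, 10% FBS. Values from fitted concentration-response curves.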
For `CC(C)NC(=O)C1(C)CCCCCN1C(=O)c1ccc(-c2ccccc2)cc1` (stereo not drawn), the Potency was “inactive”.
For `CCOC(=O)C1CCCN(Cc2cc(=O)oc3cc(C)ccc23)C1` (stereo not drawn), the Potency was inconclusive: 16.4 µM [cytotoxic, partial curve].
For `Fc1cccc(/C=C2\CCCC3=C2NC(=S)NC3c2cccc(F)c2)c1` (stereo not drawn), the Potency was inconclusive: 25.9 µM [cytotoxic, single point].
In the case of `Cc1ccc(C)c(N2CCN(C(=O)CS(=O)(=O)c3cccc4nsnc34)CC2)c1`, the Potency is reported as “inactive”.
For `Cc1ccccc1NC(=O)C1C2/C=C\CCCCC21` (stereo not drawn), the Potency was inconclusive: 23.1 µM [cytotoxic, partial curve, poor fit].
In the case of `CC(=O)c1c(C)[nH]c(C(=O)NCc2ccccc2Cl)c1C`, the Potency is reported as active: 23.1 µM.
For `CS(=O)(=O)N(CC(O)CON=C1c2ccccc2-c2ccccc21)c1ccc(F)cc1` (stereo not drawn), the Potency was “inactive”.
For `O=C(Nc1cc(Cl)cc2c1-c1ccc(Cl)cc1C2O)C(Cl)Cl` (stereo not drawn), the Potency was active: 18.4 µM.
In the case of `Cc1ccc(OCC(=O)N2CCN(c3nnc(-c4ccc(C)cc4)c4ccccc34)CC2)cc1`, the Potency is reported as active: 2.59 µM.
For `CCOC(=O)C1(S(=O)(=O)c2ccc(Cl)cc2)CCN(Cc2ccc(Cl)cc2)CC1`, the Potency was active: 8.2 µM.
In the case of `Cc1ccccc1CN1CCNC(=O)C1CC(=O)NC1CCCCCCC1` (stereo not drawn), the activity change, negative = cytotoxicity is reported as inconclusive: 18.3%.
For `Cc1cccc(N2CCN(C(=O)CN3C(=O)COc4ccc(S(=O)(=O)N5CCCC5)cc43)CC2C)c1` (stereo not drawn), the Potency was inconclusive: 4.61 µM [cytotoxic, full curve].
For `Cc1ccccc1NC(=O)CSc1nc2scc(C)c2c(=O)[nH]1`, the Potency was inconclusive: 16.4 µM [cytotoxic, single point].
With `COc1ccccc1NC(=O)C1CCCCN1S(=O)(=O)c1ccc(F)cc1` (stereo not drawn) the Potency was active: 5.17 µM.
With `Cc1ccc(-n2nc3c(c2NC(=O)c2c(F)cccc2Cl)CS(=O)(=O)C3)cc1C` the Potency was inconclusive: 29.1 µM [cytotoxic, single point].
In the case of `Cc1cc(NC(=O)c2cnc3c(-c4ccccc4)c(C)nn3c2C)ccc1Br`, the Potency is reported as “inactive”.
For `Cc1ccc(S(=O)(=O)N(CCO)c2cc3c(s2)CCCC3)cc1`, the Potency was inconclusive: 23.1 µM [cytotoxic, single point].
With `CC(C)c1ccccc1NC(=O)Cn1c(-c2ccccc2Cl)nc2ccccc21` the Potency was inconclusive: 6.51 µM [cytotoxic, partial curve].
With `CCOc1ccc(S(=O)(=O)NCCC(=O)OC(C)C(=O)N2CCc3ccccc32)cc1` (stereo not drawn) the Potency was inconclusive: 29.1 µM [cytotoxic, single point].
In the case of `Cc1ccc(-n2nc(C)cc2Nc2ncc(Cl)cc2Cl)cc1`, the Potency is reported as active: 20.6 µM.
For `C=CCNC(=O)c1ccc2nc(-c3ccccc3)c(-c3ccccc3)nc2c1`, the Potency was “inactive”.
In the case of `CCC(C)C(NC(=O)C1CCC(C)CC1)C(=O)Nc1ccc(OC)cc1` (stereo not drawn), the Potency is reported as inconclusive: 14.6 µM [cytotoxic, partial curve].
For `COc1ccccc1CNCc1ccc2c(c1)OCO2`, the Potency was inconclusive: 23.1 µM [rising, partial curve, poor fit].
In the case of `Cc1csc(=O)n1CC(=O)OCc1nnc(-c2ccc([N+](=O)[O-])cc2)o1`, the Potency is reported as inconclusive: 29.1 µM [cytotoxic, single point].
In the case of `CC1Cc2ccccc2N1C(=O)c1cc2sccc2n1Cc1ccc(F)cc1` (stereo not drawn), the Potency is reported as active: 20.6 µM.
With `COCCn1c(/C=C/c2ccccc2)nc2ccccc21` the Potency was inconclusive: 13 µM [cytotoxic, partial curve].
For `O=C(/C(=C/O)N=Nc1ccccc1)c1ccc(Cl)cc1`, the Potency was inconclusive: 25.9 µM [cytotoxic, single point].
In the case of `Cc1cc(C)nc(NS(=O)(=O)c2ccc(NS(=O)(=O)c3ccc(F)c(F)c3)cc2)n1`, the Potency is reported as “inactive”.
For `COc1ccc(NS(=O)(=O)c2cc(NC(=O)CCc3ccccc3)ccc2N2CCOCC2)cc1`, the Potency was inconclusive: 36.6 µM [cytotoxic, partial curve, poor fit].
With `CCOc1ccc(NS(=O)(=O)c2cc3c4c(c2)CCN4C(=O)CC3)cc1` the Potency was inconclusive: 13 µM [cytotoxic, single point].
For `COc1ccc(CC(NC(C)=O)C(=O)NC2CCN(S(=O)(=O)c3ccc(NC(C)=O)cc3)CC2)c(OC)c1` (stereo not drawn), the Potency was inconclusive: 29.1 µM [rising, single point].
In the case of `O=c1ccc2c(ccc3ncccc32)o1`, the Potency is reported as “inactive”.
In the case of `COC(=O)[C@H]1C[C@H](OC(=O)Nc2c(C)noc2C)[C@@]2(O)CN(S(=O)(=O)c3ccc(C)cc3)CC2[C@H]1C(=O)OC` (stereo partly drawn), the Potency is reported as “inactive”.
For `O=C(C1=C[C@H](c2ccc(C(F)(F)F)cc2)C[C@H](OCc2ccc(CO)cc2)O1)N1CCN(Cc2ccccc2)CC1`, the Potency was inconclusive: 29.1 µM [cytotoxic, single point].
In the case of `CCn1cc(C(=O)O)c(=O)c2cc(F)c(N3CCN(C(=S)NC(=O)c4ccc(Br)cc4)CC3)cc21`, the Potency is reported as inconclusive: 8.2 µM [cytotoxic, partial curve, poor fit].
In the case of `CCCc1c(-c2cccc(Br)c2)ncn1Cc1ccccc1OC`, the Potency is reported as active: 18.4 µM.
For `Cc1cc(N/N=C/c2ccc(N(C)C)cc2)c2ccccc2n1`, the Potency was “inactive”.
For `CC1CCN(c2nc3ccc(C(=O)NCCc4ccc(S(N)(=O)=O)cc4)cc3s2)CC1`, the Potency was inconclusive: 18.4 µM [rising, single point].
In the case of `CCOC(=O)c1ccc(N2C(=O)CC(NC3CCN(C(=O)c4cccc(Cl)c4)CC3)C2=O)cc1` (stereo not drawn), the Potency is reported as inconclusive: 29.1 µM [rising, single point].
For `CCCS(=O)(=O)NCCc1cc2c(OC)ccc(OC)c2[nH]c1=O`, the Potency was inconclusive: 20.6 µM [cytotoxic, partial curve].
In the case of `COc1ccc(NC(=O)Nc2nnc(-c3ccccc3F)s2)cc1`, the Potency is reported as inconclusive: 20.6 µM [rising, single point].
In the case of `Cn1nccc1NC(=O)Nc1cccc(Cl)c1`, the Potency is reported as inconclusive: 5.17 µM [rising, full curve].
In the case of `Cc1ccc(C(c2nnnn2Cc2cccs2)N2CCN(C(=O)c3ccco3)CC2)cc1` (stereo not drawn), the Potency is reported as inconclusive: 13 µM [cytotoxic, partial curve].
For `O=C(Nc1nc(-c2ccc(-c3ccccc3)cc2)cs1)C1CCCO1` (stereo not drawn), the Potency was inconclusive: 16.4 µM [cytotoxic, single point].
In the case of `CCCCn1c(N)c(N(CCOC)C(=O)c2cc3c(s2)CCC(C)C3)c(=O)[nH]c1=O` (stereo not drawn), the Potency is reported as “inactive”.
For `Cc1cccc(-n2c(-c3csc(C(C)C)c3)n[nH]c2=S)c1`, the Potency was active: 18.4 µM.
In the case of `CCCN(CCC)C(=O)C(c1ccccc1)C1(O)CCCCC1` (stereo not drawn), the Potency is reported as “inactive”.
For `COc1ccc(OC)c(NC(=O)C2C3C=CC(C3)C2C(=O)NCc2cccnc2)c1` (stereo not drawn), the Potency was inconclusive: 11.6 µM [rising, partial curve, poor fit].
For `CN1C(=O)C(O)(C2COC(C)(C)CC2=O)c2cc(Br)ccc21` (stereo not drawn), the Potency was inconclusive: 20.6 µM [cytotoxic, single point].
With `O=c1c2ccccc2nnn1CSc1ccccc1F` the Potency was inconclusive: 29.1 µM [cytotoxic, single point].
In the case of `COc1ccccc1CCNS(=O)(=O)CCNC(=O)c1ccccc1`, the Potency is reported as active: 16.4 µM.
In the case of `COC(=O)c1ccccc1NC(=O)C1CCCN(c2nnc(C)c3c(C)n(-c4ccccc4)nc23)C1` (stereo not drawn), the Potency is reported as inconclusive: 23.1 µM [rising, single point].
For `CN(C)c1ccc(/C=C/C=C2/SC(=S)N(c3ccccc3)C2=O)cc1`, the Potency was inconclusive: 25.9 µM [cytotoxic, partial curve, poor fit].
For `COCc1c(C(=O)Nc2ccc(C)c(S(=O)(=O)N3CCOCC3)c2)oc2ccccc12`, the Potency was active: 4.61 µM.
With `CCOC(=O)C1=C[C@@H](C(C)(C)C)N(S(=O)(=O)c2ccc(OC)cc2)[C@H]1c1ccccc1` the Potency was inconclusive: 16.4 µM [cytotoxic, partial curve].
For `O=c1cc(NS(=O)(=O)c2ccccc2)nc(SCc2ccc(Cl)cc2)[nH]1`, the Potency was active: 16.4 µM.
With `CCN(CC)CCOCCOc1cc(C)c(Cl)c(C)c1` the Potency was inconclusive: 18.4 µM [cytotoxic, single point].
In the case of `COc1c(C)cc(C(=O)C2CCCN(C(=O)c3ccoc3)C2)cc1C` (stereo not drawn), the Potency is reported as inconclusive: 25.9 µM [cytotoxic, single point].
For `COc1ccc(CNCC(O)(c2ccc(Cl)cc2)c2ccc(Cl)cc2)cc1`, the Potency was inconclusive: 29.1 µM [cytotoxic, single point].
For `CCOC(=O)/C(=N\Nc1cccc(Cl)c1)Sc1nnc(-c2ccc(OC)cc2)n1C`, the Potency was inconclusive: 23.1 µM [cytotoxic, single point].
For `O=C(Nc1ccc(N2CCN(Cc3ccccc3F)CC2)cc1)c1ccccc1[N+](=O)[O-]`, the Potency was inconclusive: 10.3 µM [cytotoxic, partial curve, poor fit].
In the case of `COc1ccc(C2CC(c3ccccc3OC(=O)/C=C/c3ccccc3)=NN2C(C)=O)cc1` (stereo not drawn), the Potency is reported as “inactive”.
In the case of `CCc1ccc(N(CC)C(=O)Cn2cnc3sc(C)c(S(=O)(=O)N4CCN(c5ncccn5)CC4)c3c2=O)cc1`, the Potency is reported as “inactive”.
For `C#CCNC(=O)/C=C/c1ccc(C)cc1`, the Potency was inconclusive: 8.2 µM [rising, partial curve].
In the case of `O=C1C(=O)c2c(ccc3ccccc23)-c2ccccc21`, the Potency is reported as active: 4.11 µM.
With `CC(C)NC(=O)c1cc(C2CCCCN2C(=O)c2ccc(C(C)C)cc2)on1` (stereo not drawn) the Potency was “inactive”.
For `CC1CNCCN1S(=O)(=O)c1cccc2cnccc12` (stereo not drawn), the Potency was inconclusive: 20.6 µM [cytotoxic, partial curve, poor fit] and inconclusive: 29.1 µM [cytotoxic, single point].
With `COC(=O)CNC(c1ccccc1)c1cc(Br)ccc1NS(=O)(=O)c1ccc(C)cc1` (stereo not drawn) the Potency was active: 5.8 µM.
